Data published in publication PMC10517005, “A conserved membrane protein negatively regulates Mce1 complexes in mycobacteria” (Nature Communications, 2023).
These are yes or no findings as the source states them, for the method shown. In cells and extracts the contact can be indirect. These calls come from enrichment with a bait or labelling near it, and not all partners need be listed. No binding means not detected with the bait.

Sequences of proteins named here, by UniProt entry; tags and fusion partners are left off. A change or cut given only in a name is not applied to a line headed by its entry.
UniProt A0QNR1: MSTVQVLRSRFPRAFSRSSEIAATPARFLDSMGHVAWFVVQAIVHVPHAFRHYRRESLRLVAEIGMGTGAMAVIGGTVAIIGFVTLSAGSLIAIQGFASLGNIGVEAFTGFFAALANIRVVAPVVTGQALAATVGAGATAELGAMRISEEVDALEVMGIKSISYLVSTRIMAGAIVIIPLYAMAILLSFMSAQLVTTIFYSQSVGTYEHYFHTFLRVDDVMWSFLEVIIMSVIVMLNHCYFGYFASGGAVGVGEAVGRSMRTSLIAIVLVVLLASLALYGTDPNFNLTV
UniProt A0R4F8: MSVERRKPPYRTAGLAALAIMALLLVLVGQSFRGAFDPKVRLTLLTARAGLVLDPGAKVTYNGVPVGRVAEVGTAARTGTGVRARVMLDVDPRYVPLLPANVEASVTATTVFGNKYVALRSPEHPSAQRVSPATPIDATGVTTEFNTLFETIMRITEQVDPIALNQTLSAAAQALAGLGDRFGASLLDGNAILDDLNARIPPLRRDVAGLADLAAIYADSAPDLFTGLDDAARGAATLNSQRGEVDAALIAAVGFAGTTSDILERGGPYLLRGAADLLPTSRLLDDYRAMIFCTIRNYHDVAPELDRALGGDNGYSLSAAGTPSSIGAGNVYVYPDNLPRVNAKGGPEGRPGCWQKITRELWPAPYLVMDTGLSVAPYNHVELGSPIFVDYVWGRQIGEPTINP
UniProt A0QNR2: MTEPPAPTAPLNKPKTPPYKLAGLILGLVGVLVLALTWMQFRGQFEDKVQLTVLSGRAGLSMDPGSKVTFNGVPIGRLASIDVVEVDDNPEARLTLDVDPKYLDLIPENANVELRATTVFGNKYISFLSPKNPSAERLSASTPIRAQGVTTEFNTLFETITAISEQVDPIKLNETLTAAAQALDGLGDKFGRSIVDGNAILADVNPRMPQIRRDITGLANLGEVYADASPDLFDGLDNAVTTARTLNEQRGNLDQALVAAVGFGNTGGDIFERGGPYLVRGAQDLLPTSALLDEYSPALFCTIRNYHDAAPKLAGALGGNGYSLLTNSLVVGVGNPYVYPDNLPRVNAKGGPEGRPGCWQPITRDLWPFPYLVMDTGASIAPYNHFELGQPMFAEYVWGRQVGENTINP
UniProt A0QNR3: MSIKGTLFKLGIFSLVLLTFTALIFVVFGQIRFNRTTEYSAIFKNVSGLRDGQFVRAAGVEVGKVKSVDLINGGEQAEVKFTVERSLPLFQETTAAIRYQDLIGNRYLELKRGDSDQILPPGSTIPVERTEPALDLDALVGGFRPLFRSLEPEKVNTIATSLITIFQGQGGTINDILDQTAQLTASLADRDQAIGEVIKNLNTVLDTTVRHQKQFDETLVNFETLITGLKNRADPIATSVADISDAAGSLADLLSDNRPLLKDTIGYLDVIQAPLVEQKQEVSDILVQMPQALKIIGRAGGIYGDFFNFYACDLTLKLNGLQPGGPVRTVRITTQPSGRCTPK
UniProt A0QNR4: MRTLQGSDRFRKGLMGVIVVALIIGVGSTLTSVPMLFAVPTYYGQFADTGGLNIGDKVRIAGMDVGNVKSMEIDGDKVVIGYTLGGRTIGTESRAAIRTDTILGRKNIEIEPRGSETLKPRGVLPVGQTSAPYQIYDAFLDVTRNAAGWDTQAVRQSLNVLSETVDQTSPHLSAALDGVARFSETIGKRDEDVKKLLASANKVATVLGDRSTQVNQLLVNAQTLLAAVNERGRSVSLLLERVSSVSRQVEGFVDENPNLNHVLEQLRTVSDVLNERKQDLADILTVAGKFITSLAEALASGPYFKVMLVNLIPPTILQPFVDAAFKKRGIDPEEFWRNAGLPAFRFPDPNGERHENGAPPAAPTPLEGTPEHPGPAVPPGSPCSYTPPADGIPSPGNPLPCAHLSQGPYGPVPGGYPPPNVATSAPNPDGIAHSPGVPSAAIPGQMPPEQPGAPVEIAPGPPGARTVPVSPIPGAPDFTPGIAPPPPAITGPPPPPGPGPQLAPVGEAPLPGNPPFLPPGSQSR
UniProt A0QNR5: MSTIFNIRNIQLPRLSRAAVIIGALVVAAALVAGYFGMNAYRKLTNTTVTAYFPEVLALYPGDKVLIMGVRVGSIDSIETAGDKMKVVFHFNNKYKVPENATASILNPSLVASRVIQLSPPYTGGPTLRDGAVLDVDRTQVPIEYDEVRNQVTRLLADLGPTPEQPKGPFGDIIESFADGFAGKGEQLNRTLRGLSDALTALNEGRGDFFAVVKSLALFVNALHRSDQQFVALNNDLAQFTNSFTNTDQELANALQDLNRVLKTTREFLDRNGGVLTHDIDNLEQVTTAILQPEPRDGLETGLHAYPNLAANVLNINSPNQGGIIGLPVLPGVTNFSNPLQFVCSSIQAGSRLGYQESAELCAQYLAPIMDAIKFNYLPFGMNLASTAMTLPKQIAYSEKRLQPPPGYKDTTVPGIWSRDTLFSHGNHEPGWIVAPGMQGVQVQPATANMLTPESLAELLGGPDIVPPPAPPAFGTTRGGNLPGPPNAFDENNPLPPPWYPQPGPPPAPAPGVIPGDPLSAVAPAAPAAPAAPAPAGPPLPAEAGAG
UniProt A0QNR6: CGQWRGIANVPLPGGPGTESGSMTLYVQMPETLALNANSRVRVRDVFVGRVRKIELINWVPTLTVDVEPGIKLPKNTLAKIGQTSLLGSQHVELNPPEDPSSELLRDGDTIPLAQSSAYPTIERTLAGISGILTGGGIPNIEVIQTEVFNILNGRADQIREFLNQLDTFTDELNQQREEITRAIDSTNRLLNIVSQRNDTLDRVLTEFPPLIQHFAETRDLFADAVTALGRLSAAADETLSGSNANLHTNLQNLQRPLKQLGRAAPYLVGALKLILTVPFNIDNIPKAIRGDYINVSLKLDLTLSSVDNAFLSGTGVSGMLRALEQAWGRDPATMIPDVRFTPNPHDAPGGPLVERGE
UniProt A0QNR7: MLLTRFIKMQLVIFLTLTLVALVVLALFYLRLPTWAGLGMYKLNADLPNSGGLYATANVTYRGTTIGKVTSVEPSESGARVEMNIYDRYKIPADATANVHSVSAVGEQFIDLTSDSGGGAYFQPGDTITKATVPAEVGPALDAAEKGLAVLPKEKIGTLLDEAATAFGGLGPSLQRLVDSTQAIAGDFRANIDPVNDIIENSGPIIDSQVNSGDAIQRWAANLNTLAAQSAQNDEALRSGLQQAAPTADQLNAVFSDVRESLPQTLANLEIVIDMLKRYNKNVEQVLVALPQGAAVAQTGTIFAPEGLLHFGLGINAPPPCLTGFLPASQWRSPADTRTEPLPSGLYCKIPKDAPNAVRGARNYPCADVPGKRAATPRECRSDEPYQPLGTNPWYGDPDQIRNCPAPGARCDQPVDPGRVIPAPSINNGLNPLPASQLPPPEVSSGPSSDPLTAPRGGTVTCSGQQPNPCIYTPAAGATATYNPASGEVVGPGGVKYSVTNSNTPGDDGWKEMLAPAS
UniProt A0QS64: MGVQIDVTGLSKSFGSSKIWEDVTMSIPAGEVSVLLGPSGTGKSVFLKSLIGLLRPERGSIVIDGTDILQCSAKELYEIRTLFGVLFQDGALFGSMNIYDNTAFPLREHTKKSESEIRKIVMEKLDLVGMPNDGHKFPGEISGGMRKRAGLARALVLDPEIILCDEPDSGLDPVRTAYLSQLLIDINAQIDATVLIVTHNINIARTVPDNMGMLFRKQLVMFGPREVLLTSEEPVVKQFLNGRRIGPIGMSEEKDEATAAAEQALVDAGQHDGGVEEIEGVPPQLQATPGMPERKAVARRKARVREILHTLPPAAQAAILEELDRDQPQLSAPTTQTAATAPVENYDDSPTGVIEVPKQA
UniProt A0QNR0: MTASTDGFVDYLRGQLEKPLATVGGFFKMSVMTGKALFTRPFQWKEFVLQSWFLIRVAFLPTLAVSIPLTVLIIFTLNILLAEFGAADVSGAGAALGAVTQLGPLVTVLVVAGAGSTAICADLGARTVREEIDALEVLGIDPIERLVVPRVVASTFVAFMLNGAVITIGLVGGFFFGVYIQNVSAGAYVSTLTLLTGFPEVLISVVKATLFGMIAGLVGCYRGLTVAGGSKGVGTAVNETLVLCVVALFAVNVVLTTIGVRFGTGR

B1: MSMEG_0959 (protein, UniProt A0QR24 1-164)
chain: MSGVPDASGAAPAGEVLFYEQGASWAWLLSGPIAGVGMAILQRTGGYGYDLWIPLIFLVLVSGFIAIQIKAARIHTSVELTRETLRQGTEIISIDEIVDIYPEASGSEVPKWQSARALGELTGVPRGRTGIGLKLTGKRVAQAWARRHRTLRAALQQLVEERTP
B2: MSMEG_6540 (protein, UniProt A0R6G4 1-413)
chain: MASSAALQDRLGQRFKHWRYDPPYKTACAGMVILVVTVLVLTWMQFRGDFEDKAEITLFASRSGLSMDPGSKVTFNGVPIGRLKGVDVVEVDDNPEARLTLDIDPKYLDLIPANAVAELRATTVFGNKYVSFTAPEHPSAERLSASTPIRAQGVTTEFNTLFETITAISEQVDPIKLNETLTAAAQALDGLGDKFGRSIVDGNAILADVNPRMPQIRRDITGLANLGEVYADAAPDLFDGLDNAVTTARTLNDQRHDLDQALVAAVGFGNTGGDIFERGGPYLVRGNQDLLPVAEMFDRNSPALYCTIKNYHDAAPKFAAQTNNGYSFQLNDTFVGAGNPYVYPDNLPRVNARGGPEGRPGCWQPITHDLWPAPYLVLDTGASIAPYNHFELGQPMFIEYVWGRQVGENTINP

target: His-tagged YrbE1A (M. smegmatis); assay: affinity purification with mass spectrometry; His-tagged YrbE1A or YrbE1B expressed in M. smegmatis Δmce1R; 1% DDM extract of total membranes on TALON resin, washes with 300 mM NaCl and 0.05% DDM, pH 8.0; SDS-PAGE bands and gel sections identified by LC-MS/MS (Fig. 1c)

binding	Molecule
no binding	B1

target: His6-YrbE1B (M. smegmatis) (UniProt A0QNR1); assay: as above

binding	Molecule
no binding	MSMEG_5818 (from UniProt A0R4F8)
binds	Mce1A (from UniProt A0QNR2)
binds	Mce1B (from UniProt A0QNR3)
binds	Mce1C (from UniProt A0QNR4)
binds	Mce1D (from UniProt A0QNR5)
binds	Mce1E (from UniProt A0QNR6)
binds	Mce1F (from UniProt A0QNR7)
binds	MceG (from UniProt A0QS64)
binds	YrbE1A (from UniProt A0QNR0)
binds	B2
binds	B1
